The text below walks through data of publication PMC12435445 (Angewandte Chemie (International Ed. in English), 2025).

This data set in a line: general procedure: solution-phase peptide synthesis; EDC·HCl, HOBt, i-Pr2NEt. Conditions: coupling step.

For “Boc‐Leu‐Gly‐Trp‐Gly‐Tyr(TIPS)‐Gly‐Phe‐OMe”, the step yield is 28%.
